In all, about 52,000 sequences went through this assay and about 210 (0.4%) were called active.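 The calls were made as follows: active = gene whose silencing raises cell survival under the drug, median off-target-corrected z-score across its silencing RNAs 2 or more; inactive = the rest.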 The list shows a part of the results.

The nature of this experiment: Resistance to Poly (ADP-Ribose) Polymerase inhibitor: Gene Identification via Genome-wide siRNA Screen. Particulars: mouse BRCA2 R2336H ES cells, olaparib, CellTiter-Glo viability; active compounds read high. Summed up:
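Mouse BRCA2 R2336H ES cells were reverse-transfected with siRNA (20 nM final), treated at 48 h with 500 nM olaparib, and read by CellTiter-Glo after 72 h. Scores: MAD-based z per siRNA, median per gene, seed off-target correction.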
A general note: In ATP-based viability assays light output follows the ATP content of the culture.
For GGAAUCUCCAUUUGUAUUGTT against Calml3, the z-score was inactive: 0.172.
The figure for GGAGGAUCCACAUGAUGACTT against BC044804 is inactive: -0.604.
For the sequence GGAAAAUGGAGAACUAAAGTT against Uxs1, the z-score is inactive: 0.148.
Under GCAAACUGCGCAGUUCUUGTT against Gad1 stands inactive: 1.22; under GGUUUCAUCUGUUGGAAUUTT against Meis1, inactive: -0.151; under GGAGAAAAAGCACCAAUGUTT against Plag1, inactive: 0.906.
The figure for GGCAGCAGCAACAGCAGAATT against Slc36a3 is inactive: -0.805; for GCAAAUUCCAGUGAAAGCCTT against Papola it is inactive: 0.939.
The figure for GCCAGUGUGACAUUUGGUATT against Eed is inactive: -0.563.
With GGCAAAAACCCAGAGGACCTT against Mut, the z-score was inactive: -0.0534.
Under GUGCACGAUCUGAUUGGUGTT against Pfn3 stands inactive: -0.0523.
GGAUUUGACCAGUAUAAGUTT against Ptgs2: the z-score was inactive: -1.48.
Under “GGGCCAAUAUGUUUGAGUATT against 2310040C09Rik” stands inactive: 0.225.
Under “GCAUGCACUUAAGAUUCUATT against 2310010M24Rik” stands inactive: -0.0447; under CCUAUAUGACAAAAGACAGTT against Glra2, inactive: 0.145; under CCUGAGACCGAAUUUUACCTT against Cer1, inactive: 0.209.
The figure for “GGACAAUGAGAUUCUUCUCTT against 1810030J14Rik” is inactive: -0.844; for GGAAAAUCUGGAGUUCUUCTT against Npas1 it is inactive: 0.277.
As to GCCCAUAUGAUCACAGUCGTT against Ptpn2, the z-score was inactive: -1.03.
For the sequence GGCAAUUGUACAGGAGAUUTT against BC026978, the z-score is inactive: -0.51.
Take GCCCAAAAAGGAAUUAAUUTT against Pak3: the z-score is inactive: 0.77.
Under GGAAAACGUGAUUUACACATT against Fcrh3 stands inactive: -0.23; under “GGAGGACCUGAAGCUUCAGTT against 0610039N19Rik”, inactive: 0.473; under “GGCCUGAGCUUUUUAACACTT against 2310046K01Rik”, inactive: -0.0822.
On to GGAACACCAUCAAUAAACUTT against Tjp4, for which the z-score was inactive: 0.135.
The figure for CGCACCUUUCUUUGGAAUGTT against Rab1b is inactive: 0.348; for GGAAUCACAAGGUAUUUUCTT against Spo11 it is inactive: 1.2; for “GGCCAGCAGAUAUAUAGAGTT against D0H8S2298E” it is inactive: 0.603.
Under GCAGGUUUGUAUUGUAACUTT against Abi1 stands inactive: -1.86.
The figure for GGCCAUGUUCCACACAUUATT against Grm1 is inactive: -0.583; for “GCUAGCCAAAAAAAUCCGGTT against B430218L07Rik” it is inactive: 1.41; for GGAAGCUGUGGAGAAACUATT against Acox2 it is inactive: 1.02.
In the case of GGUGCUGGAGUUGACCAGUTT against Cebpa, the z-score is inactive: 0.696.
Under GCAUUCAUUGAUCAAUUCUTT against Zfp482 stands inactive: -0.0688.
Under GCGUAAAUAAGUGUCAGAATT against Emp2 stands inactive: -0.0995; under GACAAGAAGCAGAUGACUGTT against Olig2, inactive: -0.352; under GGCCAAACAGCCAAAUUCUTT against Rps23, inactive: -2.16.
Under GGAAUGAUUUUUGUUUGCUTT against Sf3b3 stands inactive: 2.2.
Turning to GGGAAAACACAAAGAAGAATT against Angpt1, the z-score was inactive: -0.869.
The figure for GGAUUUUGAAGAGGAGUCGTT against Mpp3 is inactive: 0.396.
Under “GGAAUAUGAAGCAUAAGUGTT against 1810011O10Rik” stands inactive: 0.322; under GGCUUCGACGUGACUCAUCTT against Tcte2, inactive: 0.0514.
The figure for GGAAUUCAUCCACAUACUGTT against Actr10 is inactive: -1.38; for CCUCUACAUAUUAUGGAAATT against Dpp9 it is inactive: -0.0115; for GUCAAGCUGGCCAAACAUATT against Rps19 it is inactive: -3.27.
With GGAAGCACGUUGGAAGGAUTT against Olfr845, the z-score is inactive: -0.171.
As to CCAAUAUGAGACCAUCAUUTT against Sv2b, the z-score is inactive: -0.966.
Under “GCCCUUUGACAAUUUGUUUTT against 1300002K09Rik” stands inactive: 0.808; under CGGGUGCUAAAAUGUCUAUTT against Khdrbs2, inactive: -0.629; under “GGCAUCUAUGACAAGUUUGTT against 1700014P03Rik”, inactive: 1.19.
GGCAAACUUAUCUUCUUCUTT against Ahsa1: the z-score is inactive: 0.458.
The figure for GCUCAUUCGGACCAAAACUTT against Card4 is inactive: 0.211.
GGUUCUGAGUCUUAUCUUCTT against Sult5a1: the z-score was inactive: 0.609.
Under GGAUUCAGAAGGCCUCAGUTT against Olfr399 stands inactive: 0.794; under CCUGGAGUUAGUUUGACAGTT against Atf4, inactive: -2.52; under GGUUCAAGGGCCAGAUCCUTT against Rpl32, inactive: -2.81.
The figure for GCAGCCGAUUAUCAGCGAATT against Cyp7b1 is inactive: -1.06; for “GGAGACAUCAACAAGUUGATT against A030013D21” it is inactive: 0.585.
With GCUCGAGCUUUAUUUAAAUTT against Adarb1, the z-score is inactive: 0.784.
Under “GCCACUAAAUCCUGUUUCCTT against 1810015A11Rik” stands inactive: -0.28; under GCGACACCUUUUUUUGGGATT against Ppp1r3c, inactive: -0.174; under GCUUCGAAGCAACAUCCGATT against Rims3, inactive: 0.688.
Consider GGAGUCAGACUGAUGUCAUTT against Cdipt, for which the z-score is inactive: 1.08.
The figure for GGAAAGAGUUCAACAGGGATT against Ian1 is inactive: -1.01; for GGAGUUUCCACAAGACCUGTT against Csrp3 it is inactive: 0.897.
Under “CCAGUUGGAAAUAUGACGATT against 2510002A14Rik” stands inactive: 0.99; under GGAGCAUGAGUAUUACAAUTT against Pi16, inactive: 0.279.
Regarding CCAAUGUUGGCAUUAUGUUTT against Fah, the z-score was inactive: 0.645.
The figure for GGUGGAUACAGUGUACACUTT against Cldn13 is inactive: -0.634.
Under “GGAUUGUCAAUUCUUCCCUTT against 9130020L07Rik” stands inactive: 0.732; under GGAGAAGAUUGUAAAGGGCTT against Lig3, inactive: -2.01.
For GCUCUUUUAACGUAAUGGGTT against Cpe, the z-score is inactive: 3.
The figure for GCUCAGUUCUGUCACUUGCTT against Rs1h is inactive: -0.466.
Under “GCAGACCCAAAAGCAUUAATT against A930014K01Rik” stands inactive: 0.0472; under “GCGACUCAUUAAGGAUGUGTT against MGI:1923902”, inactive: 1.82; under GCCAAAAUUUCUCUAGCAUTT against Olfr1445, inactive: 2.23.
Under GGAGAUUGACAUUAGCAACTT against Rps6ka2 stands inactive: 0.871; under GGUUCACGAAGAACAUAAATT against MGC27863, inactive: -0.057; under GCUUCCUAACUUGAAAGCATT against Etos1, inactive: 0.157.
For GGAUCUCUCUUUCCUCCUCTT against Gli, the z-score was inactive: 2.09.
Under CCGCUUUUCCUGCCUCUGUTT against Egfl9 stands inactive: -1.78; under CGAAGGAGAUUCCGAUAAATT against Arl12, inactive: 0.472.
The figure for “GCUAGGACUACAGCUGGGATT against 6530403A03Rik” is inactive: 2.26; for CGACACUCCGAUCGUCAAGTT against Grm4 it is inactive: -0.336.
The figure for GGCUUAAAGGUCCUGUGCUTT against Ighmbp2 is inactive: 0.484; for GGAGAGCAAGGAGAACCAATT against Itga7 it is inactive: -1.21; for GGAAGAUGUCCAAACCCGCTT against Tm4sf7 it is inactive: 0.167.
As to CGAUGGCUUGGUUCCAUUUTT against Eapa2, the z-score was inactive: -1.37.
The figure for “GACAUUGGGACCUUCGAGATT against 1500041B16Rik” is inactive: -0.687; for GGGACGAGAUUGAAGAAGATT against Snx2 it is inactive: -2.04.
The figure for CCGUUUAUGACAAUGGCGUTT against Tub is inactive: -0.103; for “CGAAAUCCUAGUUUCGUCCTT against 2210013K02Rik” it is inactive: 2.24.
Under “GGUAUCUCCUGUGAACGACTT against 6330407G04Rik” stands inactive: -0.337; under GGAUCCAUAUGCUAAUCUATT against AV312086, inactive: -0.853; under GGAGAAUAUAGCAGGAGGUTT against BC049697, inactive: 0.85.
“GCAGGGAUUUUAACCAAUATT against 2610204M08Rik”: the z-score is inactive: -0.0565.
Under GGUAAACCUUUCUACCUUATT against Il8rb stands inactive: -0.206.
Under CCCGGAAAAUUGUAUUGGATT against Klhl6 stands inactive: -0.704; under GGAGGAAAGUAUGAAGAAATT against Cyp2j9, inactive: 0.56; under GGCUGUGACUCUGGAUUUGTT against Bdh, inactive: -0.875.
Under GGCCAAGAAUGAUCGUUCUTT against Gabrb3 stands inactive: -0.525; under GGAUAGAGCACAGAUCCAGTT against Siat8e, inactive: -1.03.
Take “GGCCUUUGUAGUAUCCCAGTT against 2310041H06Rik”: the z-score was inactive: 3.12.
Under GGAAUGACAAUUGUAAACUTT against Mphosph6 stands inactive: 0.41.

The record behind these values is PubChem BioAssay AID1347423 (Functional Genomics Laboratory (NCATS/FGL), 2020).
